No constants are given. Whether binding was seen depends on the method and setting. In cells and extracts the contact can be indirect. A result given as binding can be weak or reduced; the word gives no strength.
Target: Myc-Akt1 (UniProt P31749)
Assay: co-IP; HA-tagged CDKL3 constructs and Myc-Akt1 or Akt1 constructs expressed exogenously; total cell lysate on α-HA-agarose or α-myc-agarose at 4°C overnight; resin washed five times with TBS-T; Western blot; reverse IP also done for the Akt1 mapping

The chains behind the UniProt entries cited, without tags or fusion partners.
UniProt P31749: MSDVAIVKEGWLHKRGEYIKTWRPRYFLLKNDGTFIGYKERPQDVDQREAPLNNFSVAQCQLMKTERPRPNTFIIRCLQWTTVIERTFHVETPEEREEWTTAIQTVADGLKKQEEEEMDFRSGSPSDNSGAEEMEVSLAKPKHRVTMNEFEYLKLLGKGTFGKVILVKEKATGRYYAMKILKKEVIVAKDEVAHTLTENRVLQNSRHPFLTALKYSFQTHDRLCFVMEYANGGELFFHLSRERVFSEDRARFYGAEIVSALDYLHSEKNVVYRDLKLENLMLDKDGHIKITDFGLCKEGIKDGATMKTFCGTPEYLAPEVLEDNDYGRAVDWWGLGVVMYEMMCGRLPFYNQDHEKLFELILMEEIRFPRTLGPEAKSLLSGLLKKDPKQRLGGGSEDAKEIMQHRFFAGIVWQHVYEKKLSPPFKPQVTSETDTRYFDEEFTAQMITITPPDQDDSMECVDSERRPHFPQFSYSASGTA

- binding: binds
Substance: HA-CDKL3 (cyclin-dependent kinase-like 3), full length (from UniProt Q8IVW4-2) (enzyme)
